According to PubChem BioAssay AID2685 (National Center for Advancing Translational Sciences (NCATS), 2010):
The list shows a part of the results. These are further read-outs of the screen, such as a control signal, another cell line or another target. No call is given for them. The list favours compounds with an active or inconclusive main result. Potencies come from curve fits of mixed quality, noted in brackets.

Test: qHTS Assay for Lipid Storage Modulators in Drosophila S3 Cells;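 for cell number change: cells counted by Cell Tracker Red CMTPX staining in the red channel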
Conditions: BODIPY lipid droplet fluorescence, 18-24 h; for cell number change: measured here: cell count max response, cells fed with added oleic acid
Summary of the method: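 Drosophila S3 cells got compounds at several concentrations plus oleic acid (400 uM solution). Laser-scanning cytometry with 488 nm excitation read lipid droplets at 500-530 nm and cells at 575-640 nm. Percent activity was relative to 20 uM Triacsin C.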

[1] = measured here: lipid fluorescence (Fed channel) AC50, cells fed with added oleic acid
[2] = measured here: cell number channel AC50, cells fed with added oleic acid

## CO/N=C1\CCCc2c(C(=O)NN)sc(SC)c21
  cell number change: 13.7%
[1]
  AC50: 6.51 µM [rising, single point]

## O=C(CN(c1ccc2c(c1)OCCO2)S(=O)(=O)c1ccccc1)NCc1ccc(Cl)cc1
  cell number change: 6.52%
[1]
  AC50: 1.84 µM [rising, full curve, poor fit]

## O=C(CSCc1ccccc1)N1CCN(S(=O)(=O)c2cccc(F)c2)CC1
  cell number change: -14.2%
[1]
  AC50: 0.651 µM [rising, full curve, poor fit]

## O=C(O)/C=C/C(=O)NCCc1ccc(Cl)cc1
  cell number change: 5.25%
[1]
  AC50: 0.082 µM [falling, full curve, poor fit]

## C=CCn1c(N)c(C(=O)NCC2CCCO2)c2nc3ccccc3nc21 (stereo not drawn)
  cell number change: -31.4%
[2]
  AC50: 20.6 µM [falling, partial curve, poor fit]
[1]
  AC50: 0.0517 µM [falling, full curve, poor fit]

## O=Nc1c(O)n(Cc2ccc(Cl)cc2Cl)c2ccccc12
  cell number change: -64.1%
[2]
  AC50: 18.4 µM [falling, partial curve]
[1]
  AC50: 18.4 µM [falling, partial curve]

## O=C(C1CCCO1)N1CCN(C(=S)Nc2ccccc2F)CC1 (stereo not drawn)
[1]
  AC50: 1.46 µM [falling, partial curve]

## O=C(c1ccc(-c2nnc(Nc3ccccc3)c3ccccc23)cc1)N1C[C@H]2C[C@H](C1)c1cccc(=O)n1C2
  cell number change: 78.9%
[2]
  AC50: 18.4 µM [rising, partial curve]
[1]
  AC50: 6.51 µM [rising, single point]

## CN1CCC(N(C)C(=O)c2ccc(Cl)c(S(=O)(=O)N3CCCCC3)c2)CC1
[1]
  AC50: 29.1 µM [falling, single point]

## O=C(COC(=O)COc1cccc(F)c1)NCCC1=CCCCC1
  cell number change: -32.2%
[2]
  AC50: 0.58 µM [falling, full curve]
[1]
  AC50: 25.9 µM [falling, single point]

## CC(C)(C)C(=O)[C@@H]1[C@@H]2C(=O)N(Cc3ccccc3)C(=O)[C@@H]2[C@H]2c3ccccc3C=CN12
[2]
  AC50: 3.66 µM [rising, single point]

## CCOC(=O)c1sc(=NC(=O)c2cccs2)n(C)c1C
  cell number change: 1.44%

## CN(C(=O)c1cccn(Cc2ccccc2)c1=O)c1ccccc1
  cell number change: -16.3%
[2]
  AC50: 2.59 µM [rising, single point]
[1]
  AC50: 0.58 µM [rising, partial curve, poor fit]

## COc1ccc(CCNc2ccc(S(=O)(=O)N3CCN(C)CC3)cc2[N+](=O)[O-])cc1
[2]
  AC50: 6.51 µM [rising, single point]

## CC(C)(C)n1nc2c(c1NC(=O)c1ccco1)CS(=O)C2 (stereo not drawn)
[1]
  AC50: 29.1 µM [falling, partial curve]

## O=C(Nc1nc2cc3c(cc2s1)OCCO3)c1cccc(S(=O)(=O)N2CCOCC2)c1
  cell number change: -16.5%

## CCOC(=O)/C(C#N)=C\C1=C(N2CCOCC2)CC(C)(C)OC1
  cell number change: -36.5%
[2]
  AC50: 18.4 µM [falling, single point]

## CCCCNC(=S)Nc1ccc([N+](=O)[O-])cc1
  cell number change: -62.6%
[2]
  AC50: 32.6 µM [falling, single point]
[1]
  AC50: 29.1 µM [falling, single point]

## S=c1[nH]nc(COc2ccccc2)n1/N=C/c1ccccc1Br
  cell number change: -34.7%
[2]
  AC50: 20.6 µM [falling, partial curve, poor fit]

## Cc1cc(C)c2cc(CN(CCO)C(c3nnnn3Cc3ccc(F)cc3)C(C)C)c(=O)[nH]c2c1 (stereo not drawn)
  cell number change: -23.5%
[1]
  AC50: 4.11 µM [rising, partial curve]

## Cc1ccc(S(=O)(=O)N2CCC(C(=O)N3CCc4ccccc43)CC2)cc1C
  cell number change: -11.2%

## NNC(=O)Cn1c(-c2ccccc2)cc(=O)n2ncnc12
  cell number change: 24.3%
[1]
  AC50: 0.103 µM [falling, full curve, poor fit]

## COc1ccc(C(=O)NCC(=O)N/N=C(\C)Cc2ccccc2)cc1
  cell number change: 34%
[2]
  AC50: 16.4 µM [rising, single point]
[1]
  AC50: 18.4 µM [rising, single point]

## CN(C)c1ccc(/C=C2\CCCc3c2nc2ccccc2c3C(=O)O)cc1
  cell number change: 24.4%

## COc1ccccc1CNC(=O)[C@H](C)NC(=O)C1CCN(C(=O)[C@@H](N)C(C)C)CC1
  cell number change: -19.5%
[1]
  AC50: 0.82 µM [falling, full curve, poor fit]

## COc1cc(C(=O)N(C)CCOc2ccccc2)ccc1OCC(=O)Nc1cccc(C(F)(F)F)c1
  cell number change: 37.1%
[2]
  AC50: 4.11 µM [rising, full curve]
[1]
  AC50: 2.91 µM [rising, partial curve]

## CC1(c2nnc(Cc3ccccc3)o2)CC(c2ccc([N+](=O)[O-])cc2)=NO1 (stereo not drawn)
  cell number change: 6.39%
[1]
  AC50: 6.51 µM [rising, partial curve, poor fit]

## O=C(Nc1ccc(Cl)cc1)N1CCCC1
  cell number change: 4.72%
[1]
  AC50: 18.4 µM [rising, single point]

## CCN(CCCNC(=O)CNC(=O)c1nn(-c2ccc(OC)c(OC)c2)c(=O)c2ccccc12)c1ccccc1
  cell number change: -26.2%

## NC(=O)CSC1=Nc2ccccc2C2=NC(CCC(=O)NCc3ccc(F)cc3)C(=O)N12 (stereo not drawn)
  cell number change: 4.92%

## Cc1cc(C)c(C2=NOC3C4CCC(C4)C23)c(C)c1 (stereo not drawn)
  cell number change: 135%
[2]
  AC50: 29.1 µM [rising, single point]
[1]
  AC50: 0.103 µM [falling, full curve, poor fit]

## Cc1cc(C(=O)NNS(=O)(=O)c2cc(C(=O)O)ccc2Cl)c(C)n1-c1ccccc1
  cell number change: -4.66%
[1]
  AC50: 4.11 µM [falling, single point]

## COc1cc(S(=O)(=O)NC2CCCCC2C)ccc1-n1cnnn1 (stereo not drawn)
  cell number change: 13.8%
[1]
  AC50: 1.84 µM [rising, full curve, poor fit]

## COc1ccc(C(c2nnnn2Cc2ccccc2)N2CCN(c3ccccc3)CC2)cc1 (stereo not drawn)
  cell number change: 13%
[1]
  AC50: 1.3 µM [rising, full curve]

## O=C(NNC(=S)NC(=O)c1ccccc1[N+](=O)[O-])c1ccccc1O
  cell number change: 8.76%
[1]
  AC50: 0.0058 µM [falling, full curve, poor fit]

## CCN(c1ccc(F)cc1)S(=O)(=O)c1cccc2nsnc12
  cell number change: -31.9%
[2]
  AC50: 25.9 µM [falling, single point]
[1]
  AC50: 11.6 µM [rising, partial curve]

## O=C(CC(c1ccccc1)c1ccccc1)OCn1nnc2ccccc2c1=O
  cell number change: 52%
[2]
  AC50: 0.517 µM [rising, partial curve]

## CN1C(=O)CC(n2c(CO)nc3ccccc32)C1=O (stereo not drawn)
  cell number change: -24.1%
[1]
  AC50: 29.1 µM [falling, single point]

## CCCC(O)(c1ccc(OC)cc1)C(CN1CCOCC1)c1ccccc1 (stereo not drawn)
  cell number change: -18.4%
[1]
  AC50: 0.731 µM [falling, full curve]

## Cc1ccc(CSc2nnc(SCC(=O)N/N=C/c3c[nH]c4ccccc34)s2)cc1
  cell number change: -45.7%
[2]
  AC50: 5.17 µM [falling, full curve]
[1]
  AC50: 5.8 µM [falling, partial curve]

## O=C1CC(N(O)c2ccccc2)C(=O)N1c1cc(Cl)cc(Cl)c1 (stereo not drawn)
  cell number change: 5.34%
[1]
  AC50: 18.4 µM [falling, single point]

## Oc1ccc(C2=NN(c3ccccc3)C(c3ccc(F)cc3)C2)cc1 (stereo not drawn)
  cell number change: -27.8%
[1]
  AC50: 0.58 µM [falling, single point]

## Cc1ccccc1NS(=O)(=O)c1ccc(-c2ccc(=O)[nH]n2)o1
  cell number change: 20.6%
[1]
  AC50: 6.51 µM [falling, single point]

## CCOC(=O)[C@@H]1[C@H]2COc3ccccc3[C@@H]2N2C(=O)N(c3ccc(Cl)cc3)C(=O)[C@@]12C
  cell number change: -0.599%
[1]
  AC50: 0.58 µM [falling, single point]

## O=C(NCC(=O)N1CCCC1)c1ccc(Br)o1
  cell number change: 1.75%
[1]
  AC50: 3.26 µM [rising, single point]

## Cc1cc(C(=O)OCC(=O)N(C)c2ccccc2)ccc1[N+](=O)[O-]
  cell number change: 20.1%
[1]
  AC50: 6.51 µM [rising, partial curve, poor fit]

## CCOC(=O)c1cccc(-n2c(C)cc(C=O)c2C)c1
[2]
  AC50: 6.51 µM [rising, single point]
[1]
  AC50: 14.6 µM [rising, single point]

## CCOC(=O)c1ccc(NC(=O)Nc2cc(C)on2)cc1
  cell number change: -23.7%
[1]
  AC50: 6.51 µM [falling, single point]

## O=C(Nc1cccc(F)c1)C1CCN(S(=O)(=O)c2cccc3nonc23)CC1
  cell number change: -27%
[2]
  AC50: 0.13 µM [falling, full curve, poor fit]

## O=c1ccc(=O)n(-c2ccccc2)[nH]1
[1]
  AC50: 29.1 µM [falling, single point]

## O=C(O)CCCNC(=O)CCCNC(=O)C(c1ccccc1)c1ccccc1
  cell number change: -6.26%
[1]
  AC50: 0.0058 µM [falling, full curve, poor fit]

## CCOc1cccc(-c2nn3c(-c4ccco4)nnc3s2)c1
[2]
  AC50: 6.51 µM [rising, single point]
[1]
  AC50: 6.51 µM [rising, single point]

## COc1ccccc1NC(=O)c1cc(C)nc2ccccc12
  cell number change: -50.6%

## CCOc1ccc(NC(=O)CN(c2ccc(OC)cc2)S(C)(=O)=O)cc1
  cell number change: 3.14%
[1]
  AC50: 2.91 µM [rising, partial curve, poor fit]

## CCOC(=O)C1C(C(=O)NN)C1C(=O)Nc1ccccc1 (stereo not drawn)
  cell number change: 84.9%
[2]
  AC50: 18.4 µM [rising, single point]

## CCOC(=O)c1ccc(Oc2c(C)oc3cc(OS(C)(=O)=O)ccc3c2=O)cc1
  cell number change: -8.67%
[2]
  AC50: 0.00461 µM [rising, full curve, poor fit]
[1]
  AC50: 23.1 µM [falling, single point]

## CCc1nccn1S(=O)(=O)c1ccc(OC)c(C)c1C
  cell number change: -74.8%
[2]
  AC50: 18.4 µM [falling, single point]
